Data on four molecules can be found in US20090291088A1, “THERAPEUTIC COMBINATIONS OF ANTI-IGF-1R ANTIBODIES AND OTHER COMPOUNDS” (Biogen Idec MA Inc., priority 2008, published 2009).

Chains of the proteins cited; added tags and fusions are not shown. Lines headed by an entry give the natural chain unless they say otherwise; changes in a name come on top.
UniProt P08069: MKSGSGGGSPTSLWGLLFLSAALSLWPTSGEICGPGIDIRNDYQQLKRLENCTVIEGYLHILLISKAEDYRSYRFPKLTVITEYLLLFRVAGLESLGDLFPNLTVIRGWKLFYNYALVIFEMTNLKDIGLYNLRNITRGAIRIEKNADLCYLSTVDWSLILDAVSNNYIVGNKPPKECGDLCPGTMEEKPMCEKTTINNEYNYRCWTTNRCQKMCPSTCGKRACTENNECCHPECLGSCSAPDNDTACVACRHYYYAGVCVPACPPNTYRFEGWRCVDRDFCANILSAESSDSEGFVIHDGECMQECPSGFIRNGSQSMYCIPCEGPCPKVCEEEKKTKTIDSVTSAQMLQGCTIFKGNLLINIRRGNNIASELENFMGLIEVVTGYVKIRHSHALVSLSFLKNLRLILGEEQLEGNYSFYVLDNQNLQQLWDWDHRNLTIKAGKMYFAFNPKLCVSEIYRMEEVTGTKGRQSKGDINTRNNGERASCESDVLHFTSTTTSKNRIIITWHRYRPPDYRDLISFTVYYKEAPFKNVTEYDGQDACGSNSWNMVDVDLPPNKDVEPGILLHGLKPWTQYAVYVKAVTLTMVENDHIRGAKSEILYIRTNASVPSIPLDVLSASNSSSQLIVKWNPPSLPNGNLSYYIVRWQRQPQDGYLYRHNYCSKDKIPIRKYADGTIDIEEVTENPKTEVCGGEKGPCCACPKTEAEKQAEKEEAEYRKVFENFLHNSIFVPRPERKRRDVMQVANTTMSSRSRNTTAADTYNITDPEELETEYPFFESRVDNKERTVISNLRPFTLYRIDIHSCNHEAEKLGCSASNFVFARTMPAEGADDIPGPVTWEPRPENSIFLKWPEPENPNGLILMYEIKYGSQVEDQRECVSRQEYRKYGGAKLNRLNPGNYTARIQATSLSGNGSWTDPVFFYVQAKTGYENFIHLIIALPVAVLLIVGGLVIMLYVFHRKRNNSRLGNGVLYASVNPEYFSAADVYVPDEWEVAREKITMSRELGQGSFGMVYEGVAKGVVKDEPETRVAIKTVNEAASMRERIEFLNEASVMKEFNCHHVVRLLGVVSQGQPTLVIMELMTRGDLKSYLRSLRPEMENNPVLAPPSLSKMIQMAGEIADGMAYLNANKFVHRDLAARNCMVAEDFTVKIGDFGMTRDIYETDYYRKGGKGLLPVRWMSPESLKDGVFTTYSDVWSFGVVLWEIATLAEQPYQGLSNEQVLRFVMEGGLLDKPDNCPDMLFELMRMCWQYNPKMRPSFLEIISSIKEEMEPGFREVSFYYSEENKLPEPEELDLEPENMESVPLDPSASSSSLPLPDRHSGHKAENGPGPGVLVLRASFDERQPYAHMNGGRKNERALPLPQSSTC

No constants are given. Whether binding was seen depends on the method and setting. Some entries that bind do so weakly or less than the wild type.

Assay [1] addresses IGF-1R (soluble, construct not stated) (human) (UniProt P08069). Put plainly: ELISA, supernatant of 293E cells. Background: An ELISA detects its analyte on a solid surface through an enzyme-linked reagent.
The target in assay [2] is human IGF-1R expressed on cells (human) (UniProt P08069). Kind of assay: flow cytometry, MCF-7 and IGF-1R/3T3 cells.
For assay [3] the target is unchanged. Put plainly: flow cytometry on MCF-7 cells. A general note: A flow cytometer gives signals particle by particle.
For assay [4] the target is unchanged. Put plainly: flow cytometry on IGF-1R/3T3 transfectants and parental 3T3 cells.
Assay [5] addresses hIGF-1R-Fc mutant SD019 (E739W, L741F) (human) (UniProt P08069). Kind of assay: SPR, Fab over captured mutant; NE = KD within 2.5-fold of WT hIGF-1R-Fc. A general note: In SPR one partner is held on a chip, and binding of the other changes the refractive index at the surface.

B1: M12-G04.G4.P (antibody, human IgG4, V domains shown)
VH: EVQLLESGGGLVQPGGSLRLSCAASGFTFSKYTMHWVRQAPGKGLEWVSSIVSSGGWTDYADSVKGRFTISRDNSKNTLYLQMNSLRAEDTAVYYCARDRSIAAAGTGWSVSFVDWFDPWGQGTLVTVSS
VL: DIQMTQSPLSLSASVGDRVTITCRASQSINGYLNWYQQKPGKAPNLLIYATSSLQSGVPSRFSGSGSGTDFTLTISSLQPEDFATYYCQQSYSTPPYTFGQGTKLEIK
For B1, the binding result in assay [1] is listed as “binds”.

B2: M14-C03.G4.P.agly (antibody, human IgG4 S228P, kappa, V domains shown)
VH: EVQLLESGGGLVQPGGSLRLSCAASGFTFSKYMMSWVRQAPGKGLEWVSYISPSGGLTWYADSVKGRFTISRDNSKNTLYLQMNSLRAEDTAVYYCARDGARGYGMDVWGQGTTVTVSS
VL: DIQMTQSPATLSLSPGERATLSCRASQSVSSYLAWYQQKPGQAPRLLIYDASNRATGIPARFSGSGSGTDFTLTISSLEPEDFAVYYCQQRSNWPPEVTFGPGTKVDIKR
In the case of B2, the binding result in assay [2], in assay [3] and in assay [4] was “binds” each time.

B3: M14-C03 Fab (Fab, V domains shown)
VH: EVQLLESGGGLVQPGGSLRLSCAASGFTFSKYMMSWVRQAPGKGLEWVSYISPSGGLTWYADSVKGRFTISRDNSKNTLYLQMNSLRAEDTAVYYCARDGARGYGMDVWGQGTTVTVSS
VL: DIQMTQSPATLSLSPGERATLSCRASQSVSSYLAWYQQKPGQAPRLLIYDASNRATGIPARFSGSGSGTDFTLTISSLEPEDFAVYYCQQRSNWPPEVTFGPGTKVDIK
Consider B3, for which the binding result in assay [5] is “binds”.

B4: M14-C03.G4.P (antibody, human IgG4, V domains shown)
VH: EVQLLESGGGLVQPGGSLRLSCAASGFTFSKYMMSWVRQAPGKGLEWVSYISPSGGLTWYADSVKGRFTISRDNSKNTLYLQMNSLRAEDTAVYYCARDGARGYGMDVWGQGTTVTVSS
VL: DIQMTQSPATLSLSPGERATLSCRASQSVSSYLAWYQQKPGQAPRLLIYDASNRATGIPARFSGSGSGTDFTLTISSLEPEDFAVYYCQQRSNWPPEVTFGPGTKVDIK
As for B4, the binding entry in assay [1] is reported as “binds”.
